From patent US20060233883A1, “Intravenous nanoparticles for targeting drug delivery and sustained drug release” (priority 2003, published 2006)

Assays:
[1] = Formation of water-insoluble precipitates of drugs with metal ions (turbidity observed); type: physicochemical; settings: molar ratio varied
Protocol: Compounds shown in Table 1 below were used to as the low-molecular weight, water-soluble and non-peptide drug having phosphate groups. […] The solution was then added to equal volume of 100 mM aqueous solutions of different metal ions. The turbidity of each of the resulting mixtures was observed.

[2] = tested on: adjuvant-induced arthritis; assay: Activity to suppress adjuvant-induced arthritis (leg volume); type: in vivo, Lewis rats

Which “molar ratio with respect to zinc ion at which precipitate formation was most significant” value [1] does the source give for `C[C@H]1C[C@H]2[C@@H]3CCC4=CC(=O)C=C[C@]4(C)[C@@]3(F)[C@@H](O)C[C@]2(C)[C@@]1(O)C(=O)COP(=O)(O)O` [betamethasone phosphate] here?
Its value is “approximately 1”.

And the “Inflammation rate (%) after administration” value (“Inflammation rate (%)” below) ([2]; day 1, 100 μg single subcutaneous dose)?
Its value is 78.4%.

And the “Inflammation rate (%)” value ([2]; day 1, 300 μg single subcutaneous dose)?
The value was 68.3%.

And the “Inflammation rate (%)” value ([2]; day 2, 100 μg single subcutaneous dose)?
Its value is 80%.

What about the “Inflammation rate (%)” value ([2]; day 2, 300 μg single subcutaneous dose) of the same molecule?
The value was 76.5%.

And the “Inflammation rate (%)” value ([2]; day 3, 100 μg single subcutaneous dose)?
The value was 82.8%.

And the “Inflammation rate (%)” value ([2]; day 3, 300 μg single subcutaneous dose)?
The value was 79.2%.

And the “Inflammation rate (%)” value ([2]; day 4, 100 μg single subcutaneous dose)?
The value was 85.4%.

And the “Inflammation rate (%)” value ([2]; day 4, 300 μg single subcutaneous dose)?
The value was 81.7%.

What about the “Inflammation rate (%)” value ([2]; day 5, 100 μg single subcutaneous dose) of the same molecule?
Its value is 84.2%.

And the “Inflammation rate (%)” value ([2]; day 5, 300 μg single subcutaneous dose)?
The value was 88%.

And the “Inflammation rate (%)” value ([2]; day 6, 100 μg single subcutaneous dose)?
Its value is 83%.

And the “Inflammation rate (%)” value ([2]; day 7, 100 μg single subcutaneous dose)?
Its value is 81.7%.

And the “Inflammation rate (%)” value ([2]; day 7, 300 μg single subcutaneous dose)?
The value was 84.8%.
